According to paper doi:10.1101/2022.05.11.491551:
Numbering of substitutions follows the chain as printed. In names and notes the source's numbering stands. Read-outs that look alike come from different tables or passages of the source. No constants are given. Whether binding was seen depends on the method and setting. Binding seen in cells or lysates may run through a third protein. Some entries that bind do so weakly or less than the wild type. Tags and fused reporters may be left off the sequences shown. Each block holds one molecule with its values, some of them ahead of it.

Chains of the proteins cited; added tags and fusions are not shown. Lines headed by an entry give the natural chain unless they say otherwise; changes in a name come on top.
UniProt P48578, whole entry: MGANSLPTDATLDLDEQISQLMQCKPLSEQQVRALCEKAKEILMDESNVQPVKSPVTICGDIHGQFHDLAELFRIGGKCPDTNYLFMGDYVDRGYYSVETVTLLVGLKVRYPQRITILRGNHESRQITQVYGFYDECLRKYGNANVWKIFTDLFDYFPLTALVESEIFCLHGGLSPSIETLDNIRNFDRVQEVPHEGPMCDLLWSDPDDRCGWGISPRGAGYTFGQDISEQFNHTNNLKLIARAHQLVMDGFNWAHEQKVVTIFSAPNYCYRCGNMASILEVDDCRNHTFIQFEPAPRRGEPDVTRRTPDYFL

Assays:
Assay in all cases: co-IP
[1] = target: T1, A2-FLAG-GFP expressed in Arabidopsis (Arabidopsis thaliana) (UniProt Q38950)
T1 sequence: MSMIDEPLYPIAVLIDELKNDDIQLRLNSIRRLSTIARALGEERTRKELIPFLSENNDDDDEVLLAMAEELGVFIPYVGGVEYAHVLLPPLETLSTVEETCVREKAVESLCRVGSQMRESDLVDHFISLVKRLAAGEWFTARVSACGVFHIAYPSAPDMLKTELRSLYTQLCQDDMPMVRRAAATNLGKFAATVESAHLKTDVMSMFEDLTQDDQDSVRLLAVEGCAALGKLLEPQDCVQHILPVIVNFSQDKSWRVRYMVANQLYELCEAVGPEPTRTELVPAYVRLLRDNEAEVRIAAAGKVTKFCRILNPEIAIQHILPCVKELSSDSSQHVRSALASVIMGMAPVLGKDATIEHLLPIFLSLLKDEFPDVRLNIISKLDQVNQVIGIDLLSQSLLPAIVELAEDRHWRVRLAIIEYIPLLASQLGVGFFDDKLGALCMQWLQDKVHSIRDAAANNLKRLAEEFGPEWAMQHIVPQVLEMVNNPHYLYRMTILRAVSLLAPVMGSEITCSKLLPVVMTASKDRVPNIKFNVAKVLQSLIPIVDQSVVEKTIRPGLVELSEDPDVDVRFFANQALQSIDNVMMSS

[2] = target: T1, A2-FLAG-GFP expressed in Arabidopsis (Arabidopsis thaliana); remark: listed apart in the source
[3] = target: T2, A2-FLAG-GFP expressed in N. benthamiana leaves (Arabidopsis thaliana) (UniProt Q38950)
T2 sequence: T1 sequence

[4] = target: T3, EIR1 transiently expressed in Arabidopsis protoplasts (Arabidopsis thaliana) (UniProt Q9LU77)
T3 sequence: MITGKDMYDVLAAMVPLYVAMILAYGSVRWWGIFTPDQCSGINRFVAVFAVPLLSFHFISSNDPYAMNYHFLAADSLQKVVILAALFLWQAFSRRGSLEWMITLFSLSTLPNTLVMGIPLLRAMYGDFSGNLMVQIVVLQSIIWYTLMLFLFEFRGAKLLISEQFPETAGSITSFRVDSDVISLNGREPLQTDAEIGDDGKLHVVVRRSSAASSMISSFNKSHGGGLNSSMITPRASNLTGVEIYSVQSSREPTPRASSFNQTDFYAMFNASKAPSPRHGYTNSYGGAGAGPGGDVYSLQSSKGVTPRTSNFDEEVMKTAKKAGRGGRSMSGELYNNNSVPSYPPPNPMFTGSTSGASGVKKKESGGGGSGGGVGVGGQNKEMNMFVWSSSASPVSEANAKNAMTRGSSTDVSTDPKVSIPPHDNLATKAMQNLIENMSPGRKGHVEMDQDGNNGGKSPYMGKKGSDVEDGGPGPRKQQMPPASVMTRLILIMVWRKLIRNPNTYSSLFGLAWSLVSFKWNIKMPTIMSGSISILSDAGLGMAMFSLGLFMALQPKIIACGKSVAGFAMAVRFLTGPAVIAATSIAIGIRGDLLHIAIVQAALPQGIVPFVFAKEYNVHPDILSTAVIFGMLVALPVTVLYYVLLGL

[5] = target: T4, EIR1, endogenous in Arabidopsis roots (Arabidopsis thaliana (endogenous in roots of seedlings)) (UniProt Q9LU77)
T4 sequence: T3 sequence

[6] = target: T1, A2-FLAG-GFP expressed in Arabidopsis (Arabidopsis thaliana); remark: listed apart in the source
[7] = target: C4-YFP-HA expressed in Arabidopsis (Arabidopsis thaliana) (UniProt P48578)
[8] = target: C4-YFP-HA expressed in Arabidopsis (Arabidopsis thaliana) (UniProt P48578); remark: listed apart in the source
[9] = target: C4-YFP-HA expressed in Arabidopsis (Arabidopsis thaliana) (UniProt P48578); remark: listed apart in the source
[10] = target: C4-YFP-HA expressed in N. benthamiana leaves (Arabidopsis thaliana) (UniProt P48578)

Molecule: C4-YFP-HA expressed in Arabidopsis (from UniProt P48578 1-313) (enzyme)
- binding [1]: binds
- binding [2]: binds

Molecule: C4-YFP-HA expressed in N. benthamiana leaves (from UniProt P48578 1-313) (enzyme)
- binding [3]: binds

B1: A2-FLAG-GFP expressed in Arabidopsis (protein, UniProt Q38950 1-587)
chain: T1 sequence
- binding [4]: binds
- binding [5]: binds

B3: Bβ-Myc expressed in Arabidopsis (protein, UniProt Q39247 1-501)
chain: MNGGDDAATSGPPPSLEWRFSQVFGERTAGEEVQEVDIISAIEFDKSGDHLATGDRGGRVVLFERTDTKDHGGSRKDLEQTDYPVRHPEFRYKTEFQSHEPEFDYLKSLEIEEKINKIRWCQPANGALFLLSTNDKTIKYWKVQEKKIKKISEMNIDPSESSNIPPQLVTNGLPADKGHDYLSKDFSFPPGGIPSLRLPVVVTSQETNLVARCRRVYAHAHDYHINSISNSSDGETFISADDLRVNLWNLEISNQSFNIVDVKPTNMEDLTEVITSAEFHPIHCNMLAYSSSKGSIRLIDMRQSALCDSHTKLFEEPEAPGSRSFFTEIIASISDIKFSKDGRYILSRDYMTLKLWDINMDSGPVASYQVHEHLRPRLCDLYENDSIFDKFECCLSGDGLRVATGSYSNLFRVFGASQGSTEAATLEASKNPMRRQIQTPARPSRSIGSMTRVVRRGSESPGTEANGNAYDFTTKLLHMAWHPTENSIACAAANSLYMYYA
- binding [1]: binds
- binding [7]: binds
- binding [8]: binds
- binding [9]: binds

B4: Bβ^S460A-Myc expressed in N. benthamiana leaves (protein, UniProt Q39247 1-501)
chain: B3 chain with S460A
- binding [10]: binds

B6: Bβ-Myc expressed in N. benthamiana leaves (protein, UniProt Q39247 1-501)
chain: B3 chain
- binding [10]: binds

B8: Bβ^S460A-Myc expressed in Arabidopsis protoplasts (protein, UniProt Q39247 1-501)
chain: B3 chain with S460A
- binding [1]: binds
- binding [7]: binds

The next lines start with the values.

- binding [1]: binds
- binding [6]: binds
B2: EIR1 transiently expressed in Arabidopsis protoplasts (protein, UniProt Q9LU77 1-647)
chain: T3 sequence

- binding [1]: binds
B5: Bβ^S460E-Myc expressed in Arabidopsis protoplasts (protein, UniProt Q39247 1-501)
chain: B3 chain with S460E

- binding [10]: no binding
B7: Bβ^S460E-Myc expressed in N. benthamiana leaves (protein, UniProt Q39247 1-501)
chain: B3 chain with S460E
